Where “and” joins values, the source holds several entries; their conditions need not be identical. Equal values may be shown once. Out of some 310,000 compounds screened, about 17,000 (5.5%) were called active. This list was built around the results that the source calls inconclusive (neither active nor inactive); the mix of calls is not that of the screen. The call rests on the fitted dose curve; in most records, active means well fitted inhibition curve with a large enough effect; inconclusive means small, poorly fitted or top-dose-only effect, or effect the other way; inactive means no such curve, though single readings can be large or run the other way. Potencies beside an inconclusive call are fits to weak or partial responses and may not hold up.
The compounds below were run against Nuclear receptor ROR-gamma (Mus musculus) (UniProt P51450) (assay: qHTS for inhibitors of ROR gamma transcriptional activity). Details: Drosophila S2 Gal4-RORgamma UAS-luciferase reporter, 20 h; activity change, negative = inhibition: at 53.6 µM (top of the series).
Text: NIH Molecular Libraries Probe Production Network [MLPCN] NIH Chemical Genomics Center [NCGC] MLPCN Grant: R03 DA026211-01 Assay Provider: Dan Littman, New York University Assay Overview: The retinoic acid-related orphan receptor (ROR) gamma is a transcription factor that has a central role in the differentiation of Th17 cells, a subset of T helper cells that secrete the inflammatory cytokines IL-17, IL-17F, and IL-22. Th17 cells have been implicated in graft versus host disease, autoimmune disease and asthma. ROR gamma is induced in naive T helper cells in the presence of TGF-beta combined with IL-6, IL-21, or IL-23, and thereafter directs the expression of the Th17 lineage cytokines. To study the mechanism of action of ROR gamma, an insect cell-based assay was screened. This Drosophila Schneider cell line was stably transfected with two vectors: a gene expressing a fusion of the Gal4 DNA binding domain and ROR gamma transactivation domain under the control of the metallothionine promoter and a Photinus luciferase reporter regulated by the Gal4 binding site enhancer, UAS. […] Small molecule inhibitors of ROR gamma activity are detected by a decrease in luciferase reporter activity.
Assay Protocol Summary: For screening, 600 cells in 4 uL/well were dispensed into white solid 1536-well plates (Grenier) using a solenoid-based dispenser. Following transfer of 23 nL compound or DMSO vehicle by a pin tool, the plates were incubated 1 hr at ambient temperature, and 1 uL/well copper sulfate (700 uM final concentration) was added. The plates were centrifuged 15 s at 1000 RPM and incubated 20 hr at ambient temperature. After addition of 1.5 uL Photinus luciferase detection reagent, the plates were incubated 10 min at ambient temperature and then read by an ViewLux (Perkin Elmer) to detect luminescence. Keywords: NIH Roadmap, MLPCN, MLI, MLSMR, qHTS, NCGC, qHTS, nuclear hormone receptor, retinoic acid-related orphan receptor, ROR gamma
Further: nearly all actives have a fitted effect of over 60% in size.
On the % scale 0 is the no-effect control and ±100 the full control effect; potency means the concentration at half of the fitted maximal effect.

By UniProt entry, the sequences of proteins in these tests, tags left out. Where a name states a change or a piece, a line headed by the entry shows the natural chain unless it says otherwise.
UniProt P51450: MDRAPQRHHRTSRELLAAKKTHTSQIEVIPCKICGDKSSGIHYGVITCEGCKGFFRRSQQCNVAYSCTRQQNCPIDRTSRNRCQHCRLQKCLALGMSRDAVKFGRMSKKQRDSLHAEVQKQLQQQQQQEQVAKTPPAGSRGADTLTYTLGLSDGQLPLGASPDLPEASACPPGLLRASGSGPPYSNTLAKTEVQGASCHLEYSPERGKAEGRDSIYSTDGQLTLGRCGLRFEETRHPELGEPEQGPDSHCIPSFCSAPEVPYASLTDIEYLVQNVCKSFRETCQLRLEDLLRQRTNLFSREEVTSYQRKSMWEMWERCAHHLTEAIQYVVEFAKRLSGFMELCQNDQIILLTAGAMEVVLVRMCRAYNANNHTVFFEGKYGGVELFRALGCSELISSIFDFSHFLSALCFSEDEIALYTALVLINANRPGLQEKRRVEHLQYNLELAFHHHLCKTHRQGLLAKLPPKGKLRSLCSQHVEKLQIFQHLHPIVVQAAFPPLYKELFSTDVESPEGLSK

Row | Structure (SMILES) | Potency | activity change, negative = inhibition
1 | O=C(C1CC(c2ccccc2O)=NO1)N1CCC2(CC1)OCCO2 (stereo unspecified) | inconclusive: 7.94 µM [activator, partial curve, poor fit] | –
2 | O=C(/C=C/c1ccccc1)C1C(=O)c2ccccc2C1=O | inconclusive: 3.98 µM [inhibitor, full curve] | –
3 | O=C1NC(=O)C(CCc2ccncc2)(Cc2ccc3c(c2)OCO3)C(=O)N1CCc1ccccc1 (stereo unspecified) | inconclusive: 35.5 µM [inhibitor, single point] | –
4 | O=c1[nH]c2ccccc2n1C1CCN(CCCC(c2ccc(F)cc2)c2ccc(F)cc2)CC1 | inconclusive: 35.5 µM [inhibitor, single point] and inconclusive: 35.5 µM [activator, single point] | –
5 | c1ccc2c(c1)CCNC2 | inactive | –
6 | CC(=O)[O][Hg][c]1ccccc1 | active: 562 nM and active: 1.12 µM | –
7 | Brc1ccc2c(c1)C(OC1CN3CCC1CC3)c1ccccc1CS2 (stereo unspecified) | inconclusive: 12.6 µM [inhibitor, single point] | –
8 | CCCN1CC[C@@H]2c3cc(O)ccc3CC[C@@H]21 | inactive | –
9 | COC1=CC(=O)O[C@@H](/C=C\c2ccccc2)C1 | inconclusive: 7.94 µM [inhibitor, partial curve] | –
10 | CC(C)C[C@H]1C(=O)N2CCC[C@H]2[C@]2(O)O[C@](NC(=O)[C@@H]3C=C4c5cccc6[nH]c(Br)c(c56)CC4N(C)C3)(C(C)C)C(=O)N12 (stereo partly specified) | inconclusive: 20 µM [activator, single point] | –
11 | O=C(C(=O)N1CCC2(CC1)OCCO2)c1c[nH]c2ccccc12 | inactive | –
12 | CCCCC/C=C\C/C=C\C/C=C\C/C=C\CCCC(=O)O | inactive and inconclusive: 35.5 µM [inhibitor, single point] and inconclusive: 31.6 µM [activator, partial curve] | –
13 | O=C(CSc1ccccc1)N1CCC2(CC1)OCCO2 | inconclusive: 2.82 µM [activator, partial curve, poor fit] | –
14 | CCSc1cc(C2C(C#N)=C(N)Oc3n[nH]c(C)c32)c(C)o1 (stereo unspecified) | active: 11.2 µM | –
15 | O=C1NC(=O)N(Cc2ccc(F)cc2)C(=O)/C1=C\C=C\c1ccco1 | inconclusive: 35.5 µM [inhibitor, single point] | –
16 | CCP(=S)(CC)c1ccc(N(C)C)cc1 | inconclusive: 15.8 µM [inhibitor, partial curve, poor fit] | –
17 | CCCBr | inactive | –
18 | CCC(=NCCC(c1ccccc1)c1ccccc1)c1c(O)[nH]c(=O)[nH]c1=O | inconclusive: 17.8 µM [activator, single point] | –
19 | N#CC(C#N)=NNc1ccc([N+](=O)[O-])cc1 | inconclusive: 35.5 µM [inhibitor, single point] | –
20 | CC(C)c1ccc2c(c1O)CCC1C3=C(CC[C@]21C)C(=O)OC3 (stereo partly specified) | inconclusive: 15.8 µM [activator, single point] | –
21 | COc1cc2c(cc1O)C(Cc1ccc(O)cc1)NCC2 (stereo unspecified) | inconclusive: 35.5 µM [inhibitor, single point] | –
22 | O=[N+]([O-])/C=C/c1c(OCc2ccccc2)ccc2ccccc12 | active: 5.62 µM | –

Row | Structure (SMILES) | Potency | activity change, negative = inhibition
23 | O=[N+]([O-])c1ccc(N2CCCC2)c(F)c1Br | inconclusive: 35.5 µM [activator, single point] | –
24 | C/C=C(\C)C(=O)N[C@@H](c1ccccc1)[C@@H](O)C(=O)O[C@H]1C[C@@]2(O)[C@@H](OC(=O)c3ccccc3)C3[C@](C)(C(=O)[C@H](OC(C)=O)C(=C1C)C2(C)C)[C@@H](O)C[C@H]1OC[C@@]31OC(C)=O (stereo partly specified) | inconclusive: 3.16 µM [activator, partial curve] and inconclusive: 11.2 µM [activator, partial curve] | –
25 | CCOc1c(Cl)cc(CNc2ccc(S(N)(=O)=O)cc2)cc1OC | inconclusive: 14.1 µM [activator, single point] | –
26 | Clc1cccc(/C=N\Nc2nccs2)c1 | active: 11.2 µM | –
27 | COCCN1C(=O)NC(=O)/C(=C\c2ccc(Br)cc2)C1=O | inactive | –
28 | CNC(=O)N(C)c1ccc(C(O)(C(=O)OC)C(F)(F)F)cc1 (stereo unspecified) | inactive | –
29 | O=C(N/N=C\c1ccc(COc2ccc([N+](=O)[O-])cc2)o1)c1cccc(Cl)c1 | active: 1.78 µM | –
30 | c1csc(CN2CC3(CCNCC3)C2)n1 | inactive | –
31 | Oc1cc(Cl)cc(Cl)c1Cl | inconclusive: 10 µM [activator, partial curve] | –
32 | C=CCn1c(O)c(C(C)=NCc2cccnc2)c(=O)[nH]c1=O | inactive | –
33 | O=c1[nH]c(=S)n(-c2ccc(Br)cc2)c(O)c1C=Nc1ccc(N2CCOCC2)cc1 | inconclusive: 10 µM [inhibitor, partial curve, poor fit] | –
34 | O=C(Nc1ccc(Br)cc1)c1cc(Br)cc(Br)c1O | inconclusive: 22.4 µM [inhibitor, single point] | –
35 | COc1ccc(N2C(=O)CS(=O)C(c3ccccc3)C2=O)cc1 (stereo unspecified) | active: 1.26 µM | –
36 | CCCNC(=O)N1C2CCC1CC(O)(c1cccnc1)C2 (stereo unspecified) | inconclusive: 3.16 µM [activator, partial curve, poor fit] | –
37 | CC(C)(O)[C@@H]1C2OC(=O)[C@@H]1[C@]1(O)C[C@H]3O[C@]34C(=O)O[C@H]2[C@]14C | inconclusive: 15.8 µM [activator, full curve, poor fit] | –
38 | O=C(Nc1ccc(Cl)cc1)O/N=C(\c1ccccc1)c1ccccn1 | inconclusive: 14.1 µM [inhibitor, partial curve, poor fit] | –
39 | Cn1c(=O)oc2cc(NC(=O)CCl)ccc21 | inconclusive: 2 µM [inhibitor, partial curve] | –
40 | CN[C@H](C)[C@H](O)c1ccccc1 | inactive | –
41 | COc1ccc2[nH]c(C)c(CCNCc3cc(OC)c(OC)c(OC)c3)c2c1 | inconclusive: 35.5 µM [inhibitor, single point] | –
42 | CN[C@@H](C)[C@H]1CC[C@@H](N)[C@@H](O[C@@H]2[C@@H](O)[C@@H](O[C@H]3OC[C@@](C)(O)[C@@H](NC)[C@@H]3O)[C@H](N)C[C@@H]2N)O1 (tested in a mixture with another compound) | – | inactive: -0.407% [at 2.98 µM]
43 | CN1CCN(c2ccc(S(=O)(=O)C(F)(F)F)cc2[N+](=O)[O-])CC1 | inconclusive: 15.8 µM [activator, single point] | –
44 | CCCCC/C=C\C/C=C\C/C=C\C/C=C\CCCC(=O)NCc1ccoc1 | inactive | –

Gathered by group, the entries above with a carbonyl joined to an NH by a bond outside any ring (9)
Row | Structure (SMILES) | Potency | activity change, negative = inhibition
10 | CC(C)C[C@H]1C(=O)N2CCC[C@H]2[C@]2(O)O[C@](NC(=O)[C@@H]3C=C4c5cccc6[nH]c(Br)c(c56)CC4N(C)C3)(C(C)C)C(=O)N12 (stereo partly specified) | inconclusive: 20 µM [activator, single point] | –
24 | C/C=C(\C)C(=O)N[C@@H](c1ccccc1)[C@@H](O)C(=O)O[C@H]1C[C@@]2(O)[C@@H](OC(=O)c3ccccc3)C3[C@](C)(C(=O)[C@H](OC(C)=O)C(=C1C)C2(C)C)[C@@H](O)C[C@H]1OC[C@@]31OC(C)=O (stereo partly specified) | inconclusive: 3.16 µM [activator, partial curve] and inconclusive: 11.2 µM [activator, partial curve] | –
28 | CNC(=O)N(C)c1ccc(C(O)(C(=O)OC)C(F)(F)F)cc1 (stereo unspecified) | inactive | –
29 | O=C(N/N=C\c1ccc(COc2ccc([N+](=O)[O-])cc2)o1)c1cccc(Cl)c1 | active: 1.78 µM | –
34 | O=C(Nc1ccc(Br)cc1)c1cc(Br)cc(Br)c1O | inconclusive: 22.4 µM [inhibitor, single point] | –
36 | CCCNC(=O)N1C2CCC1CC(O)(c1cccnc1)C2 (stereo unspecified) | inconclusive: 3.16 µM [activator, partial curve, poor fit] | –
38 | O=C(Nc1ccc(Cl)cc1)O/N=C(\c1ccccc1)c1ccccn1 | inconclusive: 14.1 µM [inhibitor, partial curve, poor fit] | –
39 | Cn1c(=O)oc2cc(NC(=O)CCl)ccc21 | inconclusive: 2 µM [inhibitor, partial curve] | –
44 | CCCCC/C=C\C/C=C\C/C=C\C/C=C\CCCC(=O)NCc1ccoc1 | inactive | –

3 entries out of the list, sorted by molecular weight, smallest number first.
Row | Structure (SMILES) | Potency | activity change, negative = inhibition
31 | Oc1cc(Cl)cc(Cl)c1Cl | inconclusive: 10 µM [activator, partial curve] | –
44 | CCCCC/C=C\C/C=C\C/C=C\C/C=C\CCCC(=O)NCc1ccoc1 | inactive | –
34 | O=C(Nc1ccc(Br)cc1)c1cc(Br)cc(Br)c1O | inconclusive: 22.4 µM [inhibitor, single point] | –

The list continues:

Row | Structure (SMILES) | Potency | activity change, negative = inhibition
45 | CCCNC(=O)c1c(N)n(CC2CCCO2)c2nc3ccccc3nc12 (stereo unspecified) | inconclusive: 14.1 µM [inhibitor, single point] | –
46 | O=C(N/N=C1/CN2CCC1CC2)c1cc2ccccc2cc1O | active: 3.55 µM | –
47 | C=CCN1C(=O)c2ccccc2Sc2ccc(C(=O)N3CCC4(CC3)OCCO4)cc21 | inconclusive: 35.5 µM [activator, single point] | –
48 | CCOC(=O)CNC(=O)CSP(=S)(OCC)OCC | inconclusive: 12.6 µM [activator, single point] | –
49 | Cc1ccc(C2=[N+]([O-])C3(CCCCC3=O)N(O)C2(C)C)cc1 (stereo unspecified) | active: 0.891 µM | –
50 | COc1ccccc1C(=O)Nc1nnc(-c2ccc(Cl)cc2)o1 | inconclusive: 20 µM [inhibitor, single point] | –
51 | CC(C)(C)C(=O)Nc1ccc(S(=O)(=O)N2CC3CC(C2)c2cccc(=O)n2C3)cc1 (stereo unspecified) | inactive | –
52 | CNC(=O)Oc1ccccc1C(=O)Nc1ccccc1 | inconclusive: 10 µM [activator, partial curve] | –
53 | CCCCOC(C)=O | inactive | –
54 | N#CC(C#N)=Cc1ccc([N+](=O)[O-])c(O)c1 | inconclusive: 12.6 µM [inhibitor, single point] | –
55 | COc1cc(-c2ccc(-[n+]3nc(-c4ccccc4)nn3-c3ccc([N+](=O)[O-])cc3)c(OC)c2)ccc1-[n+]1nc(-c2ccccc2)nn1-c1ccc([N+](=O)[O-])cc1 | inconclusive: 11.2 µM [inhibitor, partial curve, poor fit] | –
56 | CN1C(=O)N(C)C(=O)C(CCc2ccncc2)(Cc2ccc3c(c2)OCO3)C1=O | inactive | –
57 | CC(C)(C)c1ccc(C(=O)C2CCCN(Cc3ccon3)C2)cc1 (stereo unspecified) | inconclusive: 7.08 µM [activator, full curve, poor fit] | –
58 | O=C(Nc1nnc(-c2ccco2)o1)c1cccc2ccccc12 | active: 0.0316 µM | –
59 | CN1[C@@H]2CC[C@H]1CC(OC(c1ccc(F)cc1)c1ccc(F)cc1)C2 (stereo partly specified) | inconclusive: 28.2 µM [inhibitor, partial curve] | –
60 | CCOC(=O)c1cccc(NS(=O)(=O)c2ccc(NC(C)=O)cc2)c1 | inconclusive: 1.41 µM [inhibitor, partial curve] | –
61 | CN1CCN(c2nc3ccccc3c(=O)n2-c2ccccc2)CC1 | inactive | –
62 | CCOc1cccc(OCCOCCN2CCCC2)c1 | inconclusive: 14.1 µM [inhibitor, single point] | –
63 | O=[N+]([O-])c1ccc(O)c([N+](=O)[O-])c1 | inconclusive: 22.4 µM [activator, single point] and inconclusive: 31.6 µM [inhibitor, single point] | –
64 | COc1cccc(C(=O)N2CCC3(CC2)OCCO3)c1 | inconclusive: 0.794 µM [activator, full curve, poor fit] | –
65 | COC1=C[C@]23CCCN2CCc2cc4c(cc2[C@@H]3[C@@H]1O)OCO4 | inactive | –
66 | CN1CCCC2(CCN(C(=O)c3csnn3)CC2)C1 | inactive | –

Source: PubChem BioAssay AID2551 (National Center for Advancing Translational Sciences (NCATS), 2010)
